PubChem BioAssay AID602196 | INSERM, 2012
The deposit covers about 23,000 reagents; shown is an unselected part. Over the whole deposit, 455 (2%) are marked active. 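Active includes both protection and sensitisation; some change values fall well beyond the stated -50 to +50 range.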 Reagents against one gene are numbered here. Not all columns of the deposit are shown. The record does not give: the amount of reagent.

- Test: 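Genes whose knock-down alters cisplatin killing of lung cancer cells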
- Cell system: human A549 lung cancer cells
- Reagent: siRNA pair against human genes
- Time to read-out: 48 h transfection before cisplatin; time from cisplatin to read-out not stated
- Conditions: cisplatin at a dose killing half of control-siRNA cells; exact dose and duration not given
- Read-out: 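Shift in cisplatin death relative to control siRNA, from -50 (all cells die) to +50 (no cells die); siRNAs harmful on their own scored 0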
- Direction: two-siRNA summed score (-2 to +2): higher = both siRNAs protect from cisplatin killing; -2 means both sensitise; mean protection from cisplatin (shift in death) and protection from cisplatin (shift in death), siRNA C: higher = protection from cisplatin killing
- Active means: 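siRNAs harmful alone (LDH or WST-1) get 0; others get +1 for less and -1 for more cisplatin killing; genes are active when the two siRNAs give the same sign, summing to ±2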
- Meaning of the calls: active = both siRNAs shift cisplatin killing the same way; inactive = no consistent shift, or siRNA harmful alone

Gene | reagent | two-siRNA summed score (-2 to +2) | mean protection from cisplatin (shift in death) (%) | protection from cisplatin (shift in death), siRNA C (%) | activity call
TSPAN12 | 1 | 0 | -2.1 | -10.3 | inactive
SSX2 | 1 | -1 | -7.5 | 6 | inactive
LOC441868 | 1 | 0 | 7.1 | 9.2 | inactive
MICB | 1 | -1 | -11.3 | -2.6 | inactive
AGRN | 1 | 0 | 10.9 | 13.5 | inactive
UGT1A9 | 1 | 0 | 9 | 19.5 | inactive
CNOT6L | 1 | 1 | 10.2 | 19.4 | inactive
SIK3 | 1 | 0 | -26.7 | -32.1 | inactive
LOC392262 | 1 | 0 | 0.8 | -4 | inactive
LINC03040 | 1 | 0 | 2.7 | -3 | inactive
RFT1 | 1 | 0 | -1 | -4.2 | inactive
SKA3 | 1 | 0 | 7.1 | 6.1 | inactive
LOC388893 | 1 | -1 | -15.1 | -27.3 | inactive
LOC389473 | 1 | 0 | 22.2 | 14.6 | inactive
LRRTM2 | 1 | 0 | 2 | -2.7 | inactive
SMAP1 | 1 | 0 | 6.4 | 6.8 | inactive
LOC342669 | 1 | 0 | 17.9 | 8.4 | inactive
LOC441018 | 1 | 1 | 8.6 | 12.6 | inactive
GPR149 | 1 | -1 | -5.2 | -0.6 | inactive
LINC00608 | 1 | 0 | 6.8 | 4.4 | inactive
BCO2 | 1 | 0 | 7.3 | 20.7 | inactive
LOC342892 | 1 | 0 | 7.5 | 15.7 | inactive
LOC441800 | 1 | 0 | -1.5 | -1.2 | inactive
PLEKHA7 | 1 | 0 | -0.6 | 11.8 | inactive
PLEKHA7 | 2 | 0 | 7.3 | 0.6 | inactive
LOC387942 | 1 | 0 | 2.7 | 7.4 | inactive
ADAD1 | 1 | 0 | 9.7 | 17 | inactive
BIN3-IT1 | 1 | 0 | -4.8 | -13 | inactive
LOC338809 | 1 | 0 | 9.9 | 11.7 | inactive
TIMM23 | 1 | 0 | 1.2 | -2.7 | inactive
KIF25 | 1 | 0 | -5.1 | 4.1 | inactive
MT1P3 | 1 | 0 | 27.4 | 46.3 | inactive
PRR20A | 1 | 0 | 6.6 | 5.1 | inactive
LOC442020 | 1 | 1 | 17.3 | 26.6 | inactive
RBM5 | 1 | -1 | -5.9 | -21.2 | inactive
PLA2G12A | 1 | -1 | -8.4 | -0.5 | inactive
CCR5 | 1 | 0 | -0.4 | -3.2 | inactive
PTK2 | 1 | 1 | 16.1 | 35.6 | inactive
ISL1 | 1 | 0 | -3.8 | -1.5 | inactive

Ordered by “protection from cisplatin (shift in death), siRNA C (%)” (highest first): some entries from above.
Gene | reagent | two-siRNA summed score (-2 to +2) | mean protection from cisplatin (shift in death) (%) | protection from cisplatin (shift in death), siRNA C (%) | activity call
LOC441018 | 1 | 1 | 8.6 | 12.6 | inactive
LOC342669 | 1 | 0 | 17.9 | 8.4 | inactive
SMAP1 | 1 | 0 | 6.4 | 6.8 | inactive
LINC00608 | 1 | 0 | 6.8 | 4.4 | inactive
GPR149 | 1 | -1 | -5.2 | -0.6 | inactive
LRRTM2 | 1 | 0 | 2 | -2.7 | inactive
